The structures appear in SMILES notation. Out of some 1,300 compounds screened, about 65 (5%) were called active.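 Rule for the calls: active = growth inhibition reaching a set limit at one or more tested doses; inactive = the rest.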 The list shows a part of the results. Measured potencies and affinities stand elsewhere.

Experimental findings from PubChem BioAssay AID638 (SRMLSC, 2007) are described below.

The nature of the assay: wild-type E. coli BW25113 antibacterial activity – OD615, dose response (AID 638). The note with it: at 100 µM (top of the series) unless noted. In a few lines:
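Assay system: E. coli BW25113 wild type; buffer or medium: Kanamycin-supplemented LB broth; signal: optical density (absorbance) at 615 nm; controls: chloramphenicol 30 µM control; doses: compound concentration series; times: bacterial exposure to compound 20 h at 37 °C; evaluation: IC50 from 4-parameter logistic, bounds fixed 0–100%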
Turning to `N#CC1=C(N)NC(SCc2ccccc2)=C(C#N)C12CCCCC2`, the growth inhibition is inactive: 12.1%.

As for `O=C(NCc1ccc2c(c1)OCO2)c1ccc(-c2ccc(Cl)cc2)o1`, the growth inhibition is inactive: -1.94%. Consider `Cc1ccc(C)c2[nH]c(=O)c(CN(CC3CCCO3)S(=O)(=O)c3ccc4c(c3)OCCO4)cc12` (stereo not given), for which the growth inhibition was inactive: 2.71%. The figure for `COCc1nnc(NC(=O)c2ccc(S(=O)(=O)N(C)c3ccccc3)cc2)o1` is inactive: -7.12%; for `CCCc1ccc(OCc2ccc(C(=O)N3CCN(c4ccccn4)CC3)o2)c(OC)c1` it is inactive: -16.6%; for `N#CCSc1n[nH]c2nc3c(c(=O)n12)C1(CCCC1)Cc1ccccc1-3` it is inactive: 0.5%. Then `Cc1ccc(S(=O)(=O)c2nc(Nc3nccs3)sc2Cl)cc1`, with inactive: 4.34%; and `Cc1cccc(-c2nc(CS(=O)CC(=O)NCCCSC3CCCCC3)c(C)o2)c1` (stereo not given), with inactive: -13.6%.

As to `CCn1c(SC)nnc1-c1sc2cc(Cl)ccc2c1Cl`, the growth inhibition was inactive: 2.34%. Turning to `CC(C)N(Cc1nc(-c2ccccc2)no1)C(=O)c1ccc(Cl)cc1`, the growth inhibition is inactive: 5.78%. Turning to `CCOc1ccc2nc(NC(=O)CN3CCC(n4nnc5cc(F)ccc54)CC3)sc2c1`, the growth inhibition was inactive: -10.8%. On to `COc1ccc2[nH]c3c(=O)n(CCCCC(=O)N4CCC(C(N)=O)CC4)c(=S)[nH]c3c2c1`, for which the growth inhibition was inactive: -15.3%.

For the compound `Cc1ccc(-c2nnc(N3CCN(c4ccccn4)CC3)c3ccccc23)cc1`, the growth inhibition is inactive: -5.07%. On to `O=C(CCSc1nnc2scc(-c3ccccc3)n12)Nc1nc(-c2ccccc2)ns1`, for which the growth inhibition is inactive: -24.2%.

Consider `CCCCNC(=O)c1sc(=S)n2c1[nH]c(=O)c1ccccc12`, for which the growth inhibition is inactive: 6.87%. Regarding `CCCCn1c(NC(=O)c2ccccc2)c(C#N)c2nc3ccccc3nc21`, the growth inhibition is inactive: -8.7%.

Regarding `Cc1ccc(-n2c(C)cc(C(=O)COC(=O)c3c(C)noc3C)c2C)cc1`, the growth inhibition is inactive: -8.83%. For the compound `COc1ccc2nc(NC(=O)CSc3nnnn3C3CCCCC3)sc2c1`, the growth inhibition was inactive: 17.8%.

As for `Cc1ccc(Cl)cc1N1CCN(C(=O)CCS(=O)(=O)c2cccc3nonc23)CC1`, the growth inhibition was inactive: -4.01%.

With `CCC(CC)c1nnc(NC(=O)c2c(-c3ccccc3)noc2C)s1`, the growth inhibition is inactive: 9.3%.

With `CCOC(=O)c1c(N)sc2c(OC)c(Br)ccc12`, the growth inhibition was inactive: 4.47%.

For the compound `O=S(=O)(Nc1cccc2cccnc12)c1ccc(S(=O)(=O)N2CCCC2)cc1`, the growth inhibition was inactive: -10.4%. On to `COc1ccc(NC(=O)N(C2CCCCC2)C(C)c2ccco2)c(OC)c1` (stereo not given), for which the growth inhibition is inactive: -17%. Regarding `Cc1c(NC(=O)Nc2ccc(Cl)c(Cl)c2)c(=O)n(-c2ccccc2)n1C`, the growth inhibition is inactive: 18%. As to `COCc1nnc(NC(=O)c2ccc(S(=O)(=O)N3CCCCCC3)cc2)o1`, the growth inhibition was inactive: 4.41%.

Consider `CCCCOc1ccccc1Cn1c(=O)oc2ccc(C)cc21`, for which the growth inhibition is inactive: 9.69%. As to `Cc1cc(C(=O)OCc2nnc(-c3ccccc3)o2)c(C)n1-c1ccccc1`, the growth inhibition was inactive: -1.68%.

Take `CCCCC(CC)CNC(=O)c1[nH]c(C)c(C(C)=O)c1C` (stereo not given): the growth inhibition was inactive: 5.62%. Consider `CC(C)(C)C1CCC2(CC1)C(C#N)=C(SCC(=O)NC1CCCCC1)NC(=O)C2C#N` (stereo not given), for which the growth inhibition is inactive: 12.2%. `CCOC(=O)Cc1csc(NC(=O)c2ccc(S(=O)(=O)N3CCCCC3)cc2)n1`: the growth inhibition is inactive: -9.76%.

Take `O=C(Nc1nnc(-c2ccc3c(c2)OCCO3)o1)c1ccc(Cc2ccccc2)cc1`: the growth inhibition was inactive: -22.7%. On to `N#Cc1nc(-c2ccc(OCc3ccccc3Cl)cc2)oc1NCCCn1ccnc1`, for which the growth inhibition was inactive: 19.2%.

Turning to `COC(=O)c1ccc(/C(O)=C(\C#N)c2nc3ccccc3s2)cc1`, the growth inhibition is inactive: -7.38%. The figure for `CC1CCc2nc(NC(=O)c3cc(C(C)(C)C)nn3C)sc2C1` (stereo not given) is inactive: -12.2%.

For the compound `O=c1c2cccc3c2c(nn1CN1CCOCC1)-c1ccccc1-3`, the growth inhibition was inactive: -1.71%. The figure for `Cc1ccc(O)c(C(=O)CC(=O)c2cccc(F)c2)c1` is inactive: 11.9%; for `CCCCN(C)S(=O)(=O)c1ccc(C(=O)Nc2nnc(CSC)o2)cc1` it is inactive: 9.84%; for `COc1ccc(-c2cnc(SCC(=O)Nc3ccc4c(c3)OCO4)n2Cc2ccco2)cc1` it is inactive: -19.6%. With `CCSc1nnc(NC(=O)c2nc(-c3ccccc3)n(-c3ccccc3)n2)s1`, the growth inhibition is inactive: -4.83%. In the case of `Cc1onc(-c2ccccc2)c1C(=O)Nc1sc2c(c1C#N)CCC2`, the growth inhibition was inactive: -0.05%. The figure for `O=C(NCc1ccco1)c1cnn2c1NC(c1ccc(Br)cc1)CC2C(F)(F)F` (stereo not given) is inactive: -7.73%; for `COc1ccc(-n2c(C)nc3c(cnn3-c3ccc(Cl)cc3)c2=O)cc1` it is inactive: 11.4%.

Regarding `O=C(CS(=O)(=O)c1ccccc1)Nc1nc(-c2ccccc2)cs1`, the growth inhibition is inactive: 7.34%. The figure for `CSCSC1=C(C#N)C(c2ccc(Cl)cc2)C(C(C)=O)=C(C)N1` (stereo not given) is inactive: -4.61%; for `C=CCSc1n[nH]c(-c2ccc(OCCCC)cc2)n1` it is inactive: 5.29%. Take `CCOc1ccc(N(CC(=O)Nc2cccc(Cl)c2)S(=O)(=O)c2c(C)noc2C)cc1`: the growth inhibition was inactive: 2.24%. Regarding `COc1ccc(-c2cnc(SCC(=O)Nc3cc(C)on3)n2Cc2ccco2)cc1`, the growth inhibition was inactive: -5.14%.

As for `COc1ccc(-c2[nH]ncc2-c2ccc3c(c2)OCCO3)c(O)c1`, the growth inhibition is inactive: -9.75%. On to `Cc1oc2c(CN3CCCC3)c(O)ccc2c(=O)c1-c1ccc(Br)cc1`, for which the growth inhibition is inactive: 8.91%. In the case of `CCOc1cc(/C=C(/C#N)c2ccc(F)cc2)ccc1OCc1ccc(C(=O)O)o1`, the growth inhibition is inactive: -1.68%. For the compound `CC1CCc2cc(F)ccc2N1C(=O)c1cc2nc(-c3ccco3)cc(C(F)(F)F)n2n1` (stereo not given), the growth inhibition is inactive: 2.56%. `CC1Oc2ccccc2N(Cc2ccccc2Cl)C1=O` (stereo not given): the growth inhibition is inactive: 0.22%. Turning to `CCCSc1oc(-c2ccco2)nc1S(=O)(=O)c1ccccc1`, the growth inhibition is inactive: 5.15%.

With `O=C(Oc1ccc2ccccc2c1Cl)N1CCCC1`, the growth inhibition is inactive: 13.7%. The figure for `Cc1nnc(SC(=O)N2c3ccccc3Sc3ccccc32)s1` is inactive: -6.4%; for `Cc1cc(SCC#N)n2nc(C)c(-c3ccccc3)c2n1` it is inactive: 2.64%. Regarding `CCN(CC)c1ccc(C(=O)n2cnc3ccccc32)cc1`, the growth inhibition is inactive: 10.6%. Take `COc1ccc(Cl)cc1N(C)C(=O)CCc1nc(-c2ccc(C)cc2)no1`: the growth inhibition is inactive: -1.58%.

Regarding `CC1=CC(C)(C)N2C(=O)C3(C(C#N)=C(N)Oc4cc(O)ccc43)c3cccc1c32` (stereo not given), the growth inhibition is inactive: 7.51%. For `Cc1ccc(O)c(-c2cc3ccccc3[nH]2)c1`, the growth inhibition is inactive: 11.5% [at 50 µM]. As for `CSc1ncc(Cl)c(C(=O)C(C#N)c2nc3c(C)cc(C)cc3c(=O)[nH]2)n1` (stereo not given), the growth inhibition is inactive: -10.1%. Take `O=C(Nc1ccc(Cl)cc1)N1CCC(c2nc(-c3cccs3)no2)CC1`: the growth inhibition was inactive: 15%. Consider `COc1c(C)cc(Br)cc1C(=O)Nc1cccc(NC(=O)c2ccco2)c1`, for which the growth inhibition was inactive: -0.57%. Turning to `CCN(CC)c1ccc(C(=O)Nc2cccc(F)c2)cc1`, the growth inhibition was inactive: 0.51%. Then `O=C(Nc1ccccc1N1CCCCC1)c1cccc(F)c1`, with inactive: 3.24%; and `CCOc1ccc(NS(=O)(=O)c2ccc3[nH]cc(C(=O)NC(C)CC)c(=O)c3c2)cc1` (stereo not given), with inactive: 8.14%; and `CCCN(CCC)c1nc(NC2CCN(C(=O)OCC)CC2)nc(OC)n1`, with inactive: -1.37%. Turning to `CSc1nc2ccc(NS(=O)(=O)c3ccc4c(c3)OCCO4)cc2s1`, the growth inhibition is inactive: -7.17%.

For `COc1ccc2c(c1)CCc1c(C(=O)N3CCc4ccccc4C3)noc1-2`, the growth inhibition is inactive: -8.43%. For `N#Cc1nc(COc2ccc(Br)cc2)oc1NCCCn1ccnc1`, the growth inhibition is inactive: 9.86% [at 50 µM]. As to `CCCc1cc(C(=O)Cc2ccc(C(=O)OCC)o2)c(O)cc1O`, the growth inhibition is inactive: 3.69%. Then `O=C(c1cccc(F)c1)N1CCN(C(=O)c2cc(-c3ccc(Cl)cc3Cl)on2)CC1`, with inactive: -2.14%; and `N#Cc1c(NC(=O)CSc2n[nH]c(Cc3ccccc3)n2)oc(-c2ccccc2)c1-c1ccccc1`, with inactive: -4.93%. Then `CC(C)(C)c1ccc(-c2nnc(SCCC#N)n2C2CCCC2)cc1`, with inactive: -2.58%; and `O=C(NC1CCCCC1)c1sc(=S)n2c1[nH]c(=O)c1ccccc12`, with inactive: -15.8%; and `CN1/C(=C\C(=O)COc2ccc3c(c2)OCO3)C(C)(C)c2ccccc21`, with inactive: -1.95%. `CC(C)(C)NC(=O)C(c1ccco1)N(C(=O)Cn1nnc(-c2ccc(F)cc2)n1)c1cccc(F)c1` (stereo not given): the growth inhibition was inactive: -8.87%. On to `Fc1cccc(Cl)c1Cn1nnc(-c2ccc3c(c2)OCO3)n1`, for which the growth inhibition is inactive: -5.08%. The figure for `Cn1c(=O)n(CCCOc2ccc(Br)cc2)c2ccccc21` is inactive: 9.45%. In the case of `CCCOC(=O)/C(C(N)=NCc1ccccc1)=C(\O)OCCC`, the growth inhibition is inactive: -4.62%.

As for `CCOc1ccc2nc(N3CCCN(C(=O)Nc4ccccc4C)CC3)c(C#N)cc2c1`, the growth inhibition was inactive: -13.4%. As to `Cc1cc(C)n(-c2nc(SCC(=O)N3CCCC3)c3c4c(sc3n2)CCCC4)n1`, the growth inhibition was inactive: -5.81%. With `O=c1c2c(nc3c(-c4cccc5ccccc45)c[nH]n13)CCC2`, the growth inhibition was inactive: -1.35%. For the compound `CCSCC1COC(c2cccn2Cc2ccc(C)cc2)=N1` (stereo not given), the growth inhibition is inactive: 10.3%. Turning to `C=C(C)COc1ccc(-c2[nH]ncc2Oc2ccccc2OC)c(O)c1`, the growth inhibition is inactive: 14.5%. Take `CC1CCCC(C)N1C(=O)CN1C(=O)C(C)(C)Oc2ccc(C(=O)NC3CCCCC3)cc21` (stereo not given): the growth inhibition was inactive: 5.29%.

Regarding `Cc1cc2n(n1)C(c1ccc3c(c1)OCO3)Nc1c(C)cccc1-2` (stereo not given), the growth inhibition was inactive: -5.6%.

`COc1ccc2[nH]c3c(=O)n(CCCCC(=O)N4CCCC4)c(=S)[nH]c3c2c1`: the growth inhibition was inactive: -6.47%.

Regarding `CCn1c(SCC(=O)Nc2nc(-c3ccc(C)cc3)cs2)nnc1-c1ccccc1O`, the growth inhibition is inactive: -11.4%. For `Cc1ccc(C)c(N2CCN(C(=O)c3ccccc3Br)CC2)c1`, the growth inhibition is inactive: 4.19%.
